In paper PMC10981675, “Structural basis for phage-mediated activation and repression of bacterial DSR2 anti-phage defense system” (Nature Communications, 2024) one finds binding data, which are given here for one molecule.

Positions count from the first letter of the chain named. Results are given in words; binding and its absence hold for the method and conditions named. Some entries that bind do so weakly or less than the wild type.

Assay [1] concerns the target T1, DSR2 W60A (Bacillus subtilis) (UniProt P0DXN8).
T1 sequence: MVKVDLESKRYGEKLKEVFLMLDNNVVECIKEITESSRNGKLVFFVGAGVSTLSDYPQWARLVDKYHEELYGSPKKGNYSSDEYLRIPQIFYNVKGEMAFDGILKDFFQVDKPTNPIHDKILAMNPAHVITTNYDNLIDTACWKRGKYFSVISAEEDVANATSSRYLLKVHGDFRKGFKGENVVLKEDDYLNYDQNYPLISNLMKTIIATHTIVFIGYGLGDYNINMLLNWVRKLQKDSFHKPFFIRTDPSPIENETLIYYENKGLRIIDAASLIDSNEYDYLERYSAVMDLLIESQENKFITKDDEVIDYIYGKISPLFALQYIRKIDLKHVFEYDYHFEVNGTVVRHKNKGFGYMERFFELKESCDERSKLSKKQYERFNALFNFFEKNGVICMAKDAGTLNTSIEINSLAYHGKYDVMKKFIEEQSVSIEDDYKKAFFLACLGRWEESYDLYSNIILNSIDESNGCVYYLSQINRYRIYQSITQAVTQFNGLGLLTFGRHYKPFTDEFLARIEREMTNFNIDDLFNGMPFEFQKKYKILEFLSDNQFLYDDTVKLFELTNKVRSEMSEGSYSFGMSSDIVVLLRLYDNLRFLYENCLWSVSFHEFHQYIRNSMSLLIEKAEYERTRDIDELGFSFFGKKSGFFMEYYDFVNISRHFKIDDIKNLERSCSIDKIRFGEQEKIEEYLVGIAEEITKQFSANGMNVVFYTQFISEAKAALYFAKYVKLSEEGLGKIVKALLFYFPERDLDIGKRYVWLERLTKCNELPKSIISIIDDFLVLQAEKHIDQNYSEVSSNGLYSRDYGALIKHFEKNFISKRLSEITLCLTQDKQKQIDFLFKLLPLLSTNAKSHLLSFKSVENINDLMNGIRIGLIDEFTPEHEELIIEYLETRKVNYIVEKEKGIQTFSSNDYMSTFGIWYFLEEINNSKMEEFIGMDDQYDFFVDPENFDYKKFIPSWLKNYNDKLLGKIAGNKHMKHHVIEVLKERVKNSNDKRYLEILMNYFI
Nature of the assay: tandem affinity co-purification + SEC; His-DSR2 and GST-tube made in E. coli; for wild type the cells expressing each were mixed before lysis; Ni-NTA, then glutathione resin, GST removed with HRV 3C, HiTrap Q, Superdex 200 Increase; mutants purified by the same method.

Assay [2] has as its target T2, DSR2 Y282A (Bacillus subtilis) (UniProt P0DXN8).
T2 sequence: T1 sequence with A60W, Y282A
Described as above.

B1: tail tube protein of phage SPR, wild type (natural protein)
chain: MKTVIQDTADVYFKRKSDGKLVFTAEAQTASFSQAISEEKLRGGIGNKPLYILKSEKEINLTVKNAFFDLEWLAMTQGETIQEETKVKVFDREHGLIVDDTNKVTLKGKPVSDVTFYNKKGLTYKIAVSTDGTYTIPTAFAAAKDKLTAVYQIEKVGRRLAIKASKFSERYEVEYRTIAYNPDTEEVYSDIYIQFPNVSPSGEFEMSLENGNALAPEIKFEALADTDTDEMAVVIEASRDENTAAPVEDTTGSTQSSDLGGTTE
notes: tail tube protein of Bacillus phage SPR; domains D1 and D2; GST removal with HRV 3C is told for the DSR2-tube complex; Alone it runs as monomeric and oligomeric species on SEC; Only D1 is seen in the maps; also called phage tail tube protein; source: E. coli BL21 Star (DE3); purified alone, or co-purified with DSR2 (Ni-NTA, glutathione resin, HRV 3C cleavage, HiTrap Q, Superdex 200); not shown: …
On to B1, for which the binding entry in assay [1] and in assay [2] was “binds” throughout.
